Data reported in publication PMC4831272.
No constants are given. Whether binding was seen depends on the method and setting. Binding seen in cells or lysates may run through a third protein. These calls come from enrichment with a bait or labelling near it, and not all partners need be listed.

Chains of the proteins cited; added tags and fusions are not shown. Lines headed by an entry give the natural chain unless they say otherwise; changes in a name come on top.
UniProt Q14344: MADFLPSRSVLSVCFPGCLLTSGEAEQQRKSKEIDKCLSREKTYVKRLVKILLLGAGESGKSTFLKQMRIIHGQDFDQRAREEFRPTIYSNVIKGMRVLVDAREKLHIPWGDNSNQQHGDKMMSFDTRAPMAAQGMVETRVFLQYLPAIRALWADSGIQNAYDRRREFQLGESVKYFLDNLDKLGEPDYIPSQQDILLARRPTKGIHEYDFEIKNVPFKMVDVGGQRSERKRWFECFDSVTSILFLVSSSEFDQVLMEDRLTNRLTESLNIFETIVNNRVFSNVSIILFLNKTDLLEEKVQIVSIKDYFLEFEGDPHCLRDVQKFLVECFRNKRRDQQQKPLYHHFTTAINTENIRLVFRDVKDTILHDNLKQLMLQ
UniProt Q9NPQ8: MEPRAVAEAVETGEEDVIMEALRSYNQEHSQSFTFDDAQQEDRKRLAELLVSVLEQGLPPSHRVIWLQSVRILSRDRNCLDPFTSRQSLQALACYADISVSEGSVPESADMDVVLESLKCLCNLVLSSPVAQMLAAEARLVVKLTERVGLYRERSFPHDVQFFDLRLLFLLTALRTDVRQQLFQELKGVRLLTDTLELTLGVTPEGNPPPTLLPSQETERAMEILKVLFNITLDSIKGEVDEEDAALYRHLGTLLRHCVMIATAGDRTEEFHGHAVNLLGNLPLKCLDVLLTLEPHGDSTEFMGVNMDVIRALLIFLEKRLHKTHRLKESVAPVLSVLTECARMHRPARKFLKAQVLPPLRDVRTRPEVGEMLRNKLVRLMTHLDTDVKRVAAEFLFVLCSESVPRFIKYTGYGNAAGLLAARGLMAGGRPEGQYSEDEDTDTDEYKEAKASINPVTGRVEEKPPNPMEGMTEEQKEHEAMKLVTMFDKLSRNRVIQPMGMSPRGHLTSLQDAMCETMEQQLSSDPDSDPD

Biological target: FS-tagged Gα13Q226L (constitutively active mutant of Gα13) (human) (UniProt Q14344)
Assay: affinity purification with mass spectrometry; tandem affinity purification from HEK293 cells transfected with FS or FS-Gα13QL, 48 h; lysate (13 mg) on Strep-Tactin resin, eluted by desthiobiotin, then anti-FLAG M2 resin, eluted by 3 x FLAG peptide; SDS-PAGE, bands identified by MALDI-TOF; lysis buffer 50 mM Tris-Cl pH 7.4, 150 mM NaCl, 1 mM EDTA, 0.1% NP40, 5% glycerol

Question: For “Ric-8A (Resistance to inhibitors of cholinesterase 8 homolog A), endogenous (from UniProt Q9NPQ8 1-531)”, which binding is on record?
Answer: binds
